# Source: the M2OR odorant receptor database
# The entries are a selection whose mix differs from that of the whole data set. Calls are pooled over several reports, among them a noisy single-well screen. This is one part of the list.
# Biological target: T1, OR1G1 (Homo sapiens) (UniProt P47890)
# T1 sequence (whole entry): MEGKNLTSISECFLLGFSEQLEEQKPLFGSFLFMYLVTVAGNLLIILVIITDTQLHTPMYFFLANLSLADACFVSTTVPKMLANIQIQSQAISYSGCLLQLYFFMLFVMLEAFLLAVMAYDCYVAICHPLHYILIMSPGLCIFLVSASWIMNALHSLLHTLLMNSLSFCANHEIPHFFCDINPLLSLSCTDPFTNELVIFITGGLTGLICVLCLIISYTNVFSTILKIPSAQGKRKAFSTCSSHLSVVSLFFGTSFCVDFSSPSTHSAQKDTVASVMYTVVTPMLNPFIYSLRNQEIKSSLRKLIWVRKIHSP
# Details: stereoisomer not certain
# Summary of the method: (§1)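 Each receptor–molecule pair is labelled responsive or non-responsive (inactive) according to whether the original authors judged the measured signal statistically different from baseline. The data were taken from the main text and supplementary material of published papers and checked for typos and inconsistencies. Assay methods differed by source, with transient luciferase assays in mammalian cell lines being common.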
# 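Further: active if original authors judged signal statistically different from baseline.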
row,Compound,odorant receptor agonist call
1,CCC(C)=O,inactive
2,CS,inactive
3,CCCCOC(C)=O,inactive
4,CCOc1cc(C=O)ccc1O,inactive

# Tested on: T2, OR1I1
# T2 sequence (whole entry): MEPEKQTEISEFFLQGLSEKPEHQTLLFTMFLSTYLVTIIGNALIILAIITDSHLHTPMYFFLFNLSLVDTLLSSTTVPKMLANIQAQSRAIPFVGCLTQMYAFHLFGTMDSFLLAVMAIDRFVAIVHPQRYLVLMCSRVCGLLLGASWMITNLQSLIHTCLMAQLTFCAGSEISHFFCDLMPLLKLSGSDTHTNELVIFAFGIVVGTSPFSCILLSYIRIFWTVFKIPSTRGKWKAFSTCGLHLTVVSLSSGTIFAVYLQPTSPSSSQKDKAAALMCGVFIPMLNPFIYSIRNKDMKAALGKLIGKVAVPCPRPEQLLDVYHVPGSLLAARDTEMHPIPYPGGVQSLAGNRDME
# Details: stereoisomer not certain
# Summary of the method: as §1
row,Compound,odorant receptor agonist call
1,CCC(C)=O,inactive
2,CS,inactive
3,CCCCOC(C)=O,inactive

# Biological target: T3, OR1J1 (Homo sapiens) (UniProt Q8NGS3)
# T3 sequence (whole entry): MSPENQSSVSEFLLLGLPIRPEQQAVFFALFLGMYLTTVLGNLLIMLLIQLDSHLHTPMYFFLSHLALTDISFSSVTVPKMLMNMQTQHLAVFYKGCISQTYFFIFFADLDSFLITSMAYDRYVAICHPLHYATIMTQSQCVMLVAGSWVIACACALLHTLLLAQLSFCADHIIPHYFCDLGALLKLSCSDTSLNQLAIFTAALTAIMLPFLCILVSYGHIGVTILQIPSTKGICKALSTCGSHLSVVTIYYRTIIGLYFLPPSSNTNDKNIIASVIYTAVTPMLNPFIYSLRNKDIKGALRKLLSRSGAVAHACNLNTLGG
# Details: stereoisomer not certain
# Summary of the method: as §1
row,Compound,odorant receptor agonist call
1,CCC(C)=O,inactive
2,CS,inactive
3,CCCCOC(C)=O,inactive

# Biological target: T4, OR1J2 (Homo sapiens) (UniProt Q8NGS2)
# T4 sequence (whole entry): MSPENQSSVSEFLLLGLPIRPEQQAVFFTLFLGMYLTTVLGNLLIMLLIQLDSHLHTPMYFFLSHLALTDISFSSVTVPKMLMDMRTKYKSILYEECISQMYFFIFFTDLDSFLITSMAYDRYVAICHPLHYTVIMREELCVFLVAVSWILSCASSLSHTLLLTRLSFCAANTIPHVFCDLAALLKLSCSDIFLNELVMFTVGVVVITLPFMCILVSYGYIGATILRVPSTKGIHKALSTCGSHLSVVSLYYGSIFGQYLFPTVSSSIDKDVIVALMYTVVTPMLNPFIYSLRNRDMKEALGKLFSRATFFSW
# Details: stereoisomer not certain
# Summary of the method: as §1
row,Compound,odorant receptor agonist call
1,CCC(C)=O,inactive
2,CS,inactive
3,CCCCOC(C)=O,inactive

# Biological target: T5, OR1J4 (Homo sapiens) (UniProt Q8NGS1)
# T5 sequence (whole entry): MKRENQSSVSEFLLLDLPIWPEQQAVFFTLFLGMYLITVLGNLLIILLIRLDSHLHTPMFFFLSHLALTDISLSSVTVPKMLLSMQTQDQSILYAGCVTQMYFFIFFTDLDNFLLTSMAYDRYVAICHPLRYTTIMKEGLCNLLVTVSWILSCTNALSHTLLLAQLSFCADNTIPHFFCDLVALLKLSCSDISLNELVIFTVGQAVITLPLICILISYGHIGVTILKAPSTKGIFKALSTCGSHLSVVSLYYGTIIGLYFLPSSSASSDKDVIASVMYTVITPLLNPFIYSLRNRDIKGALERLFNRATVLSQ
# Details: stereoisomer not certain
# Summary of the method: as §1
row,Compound,odorant receptor agonist call
1,CCC(C)=O,inactive
2,CS,inactive
3,CCCCOC(C)=O,inactive

# Biological target: T6, OR1K1 (Homo sapiens) (UniProt Q8NGR3)
# T6 sequence (whole entry): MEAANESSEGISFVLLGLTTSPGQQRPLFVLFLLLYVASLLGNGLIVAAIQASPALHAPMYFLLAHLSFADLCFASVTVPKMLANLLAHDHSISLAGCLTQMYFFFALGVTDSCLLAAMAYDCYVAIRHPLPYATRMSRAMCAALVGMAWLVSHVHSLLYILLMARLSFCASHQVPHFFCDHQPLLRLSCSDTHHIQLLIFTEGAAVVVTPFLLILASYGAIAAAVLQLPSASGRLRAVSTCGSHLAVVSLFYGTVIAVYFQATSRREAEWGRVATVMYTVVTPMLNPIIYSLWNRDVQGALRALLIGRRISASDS
# Details: stereoisomer not certain
# Summary of the method: as §1
row,Compound,odorant receptor agonist call
1,CCC(C)=O,inactive
2,CS,inactive
3,CCCCOC(C)=O,inactive

# Tested on: T7, OR1L1
# T7 sequence (whole entry): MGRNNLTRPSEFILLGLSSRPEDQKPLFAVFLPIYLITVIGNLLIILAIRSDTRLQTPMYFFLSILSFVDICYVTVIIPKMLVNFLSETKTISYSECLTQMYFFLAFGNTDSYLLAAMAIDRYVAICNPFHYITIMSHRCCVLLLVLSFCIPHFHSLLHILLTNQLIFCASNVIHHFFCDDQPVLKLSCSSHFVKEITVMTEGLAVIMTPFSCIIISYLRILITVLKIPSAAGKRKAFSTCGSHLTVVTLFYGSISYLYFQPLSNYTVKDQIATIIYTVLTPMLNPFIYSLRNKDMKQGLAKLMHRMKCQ
# Details: stereoisomer not certain
# Summary of the method: as §1
row,Compound,odorant receptor agonist call
1,CCC(C)=O,inactive
2,CS,inactive
3,CCCCOC(C)=O,inactive

# Biological target: T8, OR1L3 (Homo sapiens) (UniProt Q8NH93)
# T8 sequence (whole entry): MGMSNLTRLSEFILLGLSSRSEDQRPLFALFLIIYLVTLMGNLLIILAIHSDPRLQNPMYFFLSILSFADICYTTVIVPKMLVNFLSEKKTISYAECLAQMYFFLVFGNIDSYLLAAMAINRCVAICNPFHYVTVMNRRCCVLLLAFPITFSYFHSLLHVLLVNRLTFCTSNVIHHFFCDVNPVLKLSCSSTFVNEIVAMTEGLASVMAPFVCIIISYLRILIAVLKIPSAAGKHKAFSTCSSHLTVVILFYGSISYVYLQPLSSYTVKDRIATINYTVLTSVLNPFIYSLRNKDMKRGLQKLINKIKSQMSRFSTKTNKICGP
# Details: stereoisomer not certain
# Summary of the method: as §1
row,Compound,odorant receptor agonist call
1,CCC(C)=O,inactive
2,CS,inactive
3,CCCCOC(C)=O,inactive

# Tested on: T9, OR1L4
# T9 sequence (whole entry): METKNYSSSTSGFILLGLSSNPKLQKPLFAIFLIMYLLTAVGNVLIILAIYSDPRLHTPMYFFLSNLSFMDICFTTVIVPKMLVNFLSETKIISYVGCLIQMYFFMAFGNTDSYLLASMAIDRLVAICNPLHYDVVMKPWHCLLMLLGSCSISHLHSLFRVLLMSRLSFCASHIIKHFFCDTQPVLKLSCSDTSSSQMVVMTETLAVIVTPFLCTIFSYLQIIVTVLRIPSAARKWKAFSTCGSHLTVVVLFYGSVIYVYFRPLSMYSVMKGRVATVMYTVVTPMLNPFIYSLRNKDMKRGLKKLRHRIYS
# Details: stereoisomer not certain
# Summary of the method: as §1
row,Compound,odorant receptor agonist call
1,CCC(C)=O,inactive
2,CS,inactive
3,CCCCOC(C)=O,inactive

# Tested on: T10, OR1L6
# T10 sequence (whole entry): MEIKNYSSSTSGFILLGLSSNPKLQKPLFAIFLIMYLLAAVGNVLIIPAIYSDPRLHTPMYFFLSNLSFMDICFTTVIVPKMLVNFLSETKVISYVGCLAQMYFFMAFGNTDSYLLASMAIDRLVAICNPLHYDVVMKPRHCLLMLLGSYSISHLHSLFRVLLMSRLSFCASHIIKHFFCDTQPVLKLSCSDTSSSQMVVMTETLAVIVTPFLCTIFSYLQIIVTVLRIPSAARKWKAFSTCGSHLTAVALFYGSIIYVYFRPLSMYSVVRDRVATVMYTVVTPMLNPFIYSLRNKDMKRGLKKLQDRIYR
# Details: stereoisomer not certain
# Summary of the method: as §1
row,Compound,odorant receptor agonist call
1,CCC(C)=O,inactive
2,CS,inactive
3,CCCCOC(C)=O,inactive
